# The list shows a part of the results.
# B1: DCL-1 (Homo sapiens), Q8IX05 (protein)
# chain: MLRAALPALLLPLLGLAAAAVADCPSSTWIQFQDSCYIFLQEAIKVESIEDVRNQCTDHGADMISIHNEEENAFILDTLKKQWKGPDDILLGMFYDTDDASFKWFDNSNMTFDKWTDQDDDEDLVDTCAFLHIKTGEWKKGNCEVSSVEGTLCKTAIPYKRKYLSDNHILISALVIASTVILTVLGAIIWFLYKKHSDSRFTTVFSTAPQSPYNEDCVLVVGEENEYPVQFD
# What was measured:
# Assay in all cases: glycan array binding signal (z-score within array); higher = stronger binding
# Settings in all cases: glycan notation: IUPAC condensed, linker removed
# [1] = biological target: Fuc(a1-2)[GalNAc(a1-3)]Gal(b1-4)Glc
# Procedure, shortened: (§1)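 From the Consortium for Functional Glycomics database, 3228 arrays were curated, keeping only those whose protein sequence was available. Binding is given as a within-array Z-score averaged across arrays sharing a protein sequence and across linkers. Negative Z-scores can be read as non-binding.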
# [2] = biological target: Fuc(a1-2)[GalNAc(a1-3)]Gal(b1-4)GlcNAc
# Procedure, shortened: as §1
# [3] = biological target: Fuc(a1-2)[GalNAc(a1-3)]Gal(b1-4)GlcNAc(b1-2)Man(a1-3)[Fuc(a1-2)[GalNAc(a1-3)]Gal(b1-4)GlcNAc(b1-2)Man(a1-6)]Man(b1-4)GlcNAc(b1-4)GlcNAc
# Procedure, shortened: as §1
# [4] = biological target: Fuc(a1-2)[GalNAc(a1-3)]Gal(b1-4)GlcNAc(b1-2)Man(a1-3)[Fuc(a1-2)[GalNAc(a1-3)]Gal(b1-4)GlcNAc(b1-2)Man(a1-6)]Man(b1-4)GlcNAc(b1-4)[Fuc(a1-6)]GlcNAc
# Procedure, shortened: as §1
# [5] = biological target: Fuc(a1-2)[GalNAc(a1-3)]Gal(b1-4)GlcNAc(b1-3)Gal(b1-4)GlcNAc
# Procedure, shortened: as §1
# [6] = biological target: Fuc(a1-2)[GalNAc(a1-3)]Gal(b1-4)GlcNAc(b1-3)Gal(b1-4)GlcNAc(b1-3)Gal(b1-4)GlcNAc
# Procedure, shortened: as §1
# [7] = biological target: Fuc(a1-2)[GalNAc(a1-3)]Gal(b1-4)GlcNAc(b1-3)GalNAc
# Procedure, shortened: as §1
# [8] = biological target: Fuc(a1-2)[GalNAc(a1-3)]Gal(b1-4)[Fuc(a1-3)]GlcNAc
# Procedure, shortened: as §1
# [9] = biological target: Fuc(a1-2)[GalNAc(a1-3)]Gal(b1-4)[Fuc(a1-3)]GlcNAc(b1-3)GalNAc
# Procedure, shortened: as §1
# [10] = biological target: Fuc(a1-2)[GalNAc(a1-4)]Gal(b1-4)GlcNAc
# Procedure, shortened: as §1
# [11] = biological target: Fuc(a1-2)[GalNAc(b1-3)]Gal
# Procedure, shortened: as §1
# Fuc(a1-3)GlcNAc = biological target: Fuc(a1-3)GlcNAc
# Procedure, shortened: as §1
# [12] = biological target: Fuc(a1-3)[Gal(b1-4)]Glc6S
# Procedure, shortened: as §1
# [13] = biological target: Fuc(a1-3)[Gal(b1-4)]GlcNAc
# Procedure, shortened: as §1
# [14] = biological target: Fuc(a1-3)[Gal(b1-4)]GlcNAc(b1-2)Man(a1-3)[Fuc(a1-3)[Gal(b1-4)]GlcNAc(b1-2)Man(a1-6)]Man(b1-4)GlcNAc(b1-4)GlcNAc
# Procedure, shortened: as §1
# [15] = biological target: Fuc(a1-3)[Gal(b1-4)]GlcNAc(b1-2)Man(a1-3)[Fuc(a1-3)[Gal(b1-4)]GlcNAc(b1-2)Man(a1-6)]Man(b1-4)GlcNAc(b1-4)[Fuc(a1-6)]GlcNAc
# Procedure, shortened: as §1
# [16] = biological target: Fuc(a1-3)[Gal(b1-4)]GlcNAc(b1-3)Gal(b1-3)[Fuc(a1-4)]GlcNAc
# Procedure, shortened: as §1
# [17] = biological target: Fuc(a1-3)[Gal(b1-4)]GlcNAc(b1-3)GalNAc
# Procedure, shortened: as §1
# [18] = biological target: Fuc(a1-3)[Gal(b1-4)]GlcNAc(b1-4)Gal(b1-4)[Fuc(a1-3)]GlcNAc
# Procedure, shortened: as §1
# [19] = biological target: Fuc(a1-3)[Gal(b1-4)]GlcNAc(b1-4)Gal(b1-4)[Fuc(a1-3)]GlcNAc(b1-4)Gal(b1-4)[Fuc(a1-3)]GlcNAc
# Procedure, shortened: as §1
# [20] = biological target: Fuc(a1-3)[Gal(b1-4)]GlcNAc(b1-6)GalNAc
# Procedure, shortened: as §1
# [21] = biological target: Fuc(a1-3)[Gal(b1-4)]GlcNAc(b1-6)[Gal(b1-3)GlcNAc(b1-3)]Gal(b1-4)Glc
# Procedure, shortened: as §1
# [22] = biological target: Fuc(a1-3)[Gal(b1-4)]GlcNAc(b1-6)[Neu5Ac(a2-3)Gal(b1-3)]GalNAc
# Procedure, shortened: as §1
# [23] = biological target: Fuc(a1-3)[Gal(b1-4)]GlcNAc6S
# Procedure, shortened: as §1
# [24] = biological target: Fuc(a1-3)[Gal3S(b1-4)]GlcNAc
# Procedure, shortened: as §1
# [25] = biological target: Fuc(a1-3)[Gal3S(b1-4)]GlcNAc6S
# Procedure, shortened: as §1
# [26] = biological target: Fuc(a1-3)[GalNAc(b1-4)]GlcNAc
# Procedure, shortened: as §1
# Fuc(a1-4)GlcNAc = biological target: Fuc(a1-4)GlcNAc
# Procedure, shortened: as §1
# Fuc(b1-3)GlcNAc = biological target: Fuc(b1-3)GlcNAc
# Procedure, shortened: as §1
# Gal(a1-2)Gal = biological target: Gal(a1-2)Gal
# Procedure, shortened: as §1
# Gal(a1-3)Gal = biological target: Gal(a1-3)Gal
# Procedure, shortened: as §1
# Gal(a1-3)Gal(b1-3)GlcNAc = biological target: Gal(a1-3)Gal(b1-3)GlcNAc
# Procedure, shortened: as §1
# [27] = biological target: Gal(a1-3)Gal(b1-3)GlcNAc(b1-2)Man(a1-3)[Gal(a1-3)Gal(b1-3)GlcNAc(b1-2)Man(a1-6)]Man(b1-4)GlcNAc(b1-4)GlcNAc
# Procedure, shortened: as §1
# [28] = biological target: Gal(a1-3)Gal(b1-3)GlcNAc(b1-3)GalNAc
# Procedure, shortened: as §1
# [29] = biological target: Gal(a1-3)Gal(b1-3)[Fuc(a1-4)]GlcNAc(b1-2)Man(a1-3)[Gal(a1-3)Gal(b1-3)[Fuc(a1-4)]GlcNAc(b1-2)Man(a1-6)]Man(b1-4)GlcNAc(b1-4)GlcNAc
# Procedure, shortened: as §1
# Gal(a1-3)Gal(b1-4)Glc = biological target: Gal(a1-3)Gal(b1-4)Glc
# Procedure, shortened: as §1
# Gal(a1-3)Gal(b1-4)GlcNAc = biological target: Gal(a1-3)Gal(b1-4)GlcNAc
# Procedure, shortened: as §1
# [30] = biological target: Gal(a1-3)Gal(b1-4)GlcNAc(b1-3)GalNAc
# Procedure, shortened: as §1
# [31] = biological target: Gal(a1-3)Gal(b1-4)[Fuc(a1-3)]GlcNAc
# Procedure, shortened: as §1
# [32] = biological target: Gal(a1-3)Gal(b1-4)[Fuc(a1-3)]GlcNAc(b1-2)Man(a1-3)[Gal(a1-3)Gal(b1-4)[Fuc(a1-3)]GlcNAc(b1-2)Man(a1-6)]Man(b1-4)GlcNAc(b1-4)GlcNAc
# Procedure, shortened: as §1
# Gal(a1-3)GalNAc = biological target: Gal(a1-3)GalNAc
# Procedure, shortened: as §1
# [33] = biological target: Gal(a1-3)[Gal(a1-4)]Gal(b1-4)GlcNAc
# Procedure, shortened: as §1
# [34] = biological target: Gal(a1-4)Gal(b1-3)GlcNAc(b1-2)Man(a1-3)[Gal(a1-4)Gal(b1-3)GlcNAc(b1-2)Man(a1-6)]Man(b1-4)GlcNAc(b1-4)GlcNAc
# Procedure, shortened: as §1
# Gal(a1-4)Gal(b1-4)Glc = biological target: Gal(a1-4)Gal(b1-4)Glc
# Procedure, shortened: as §1
# Gal(a1-4)Gal(b1-4)GlcNAc = biological target: Gal(a1-4)Gal(b1-4)GlcNAc
# Procedure, shortened: as §1
# [35] = biological target: Gal(a1-4)Gal(b1-4)GlcNAc(b1-2)Man(a1-3)[Gal(a1-4)Gal(b1-4)GlcNAc(b1-2)Man(a1-6)]Man(b1-4)GlcNAc(b1-4)GlcNAc
# Procedure, shortened: as §1
# [36] = biological target: Gal(a1-4)Gal(b1-4)GlcNAc(b1-3)Gal(b1-4)Glc
# Procedure, shortened: as §1
# Gal(a1-4)GlcNAc = biological target: Gal(a1-4)GlcNAc
# Procedure, shortened: as §1
# Gal(a1-6)Glc = biological target: Gal(a1-6)Glc
# Procedure, shortened: as §1
# Gal(b1-2)Gal = biological target: Gal(b1-2)Gal
# Procedure, shortened: as §1
# Gal(b1-3)Gal = biological target: Gal(b1-3)Gal
# Procedure, shortened: as §1
# Gal(b1-3)Gal(b1-4)GlcNAc = biological target: Gal(b1-3)Gal(b1-4)GlcNAc
# Procedure, shortened: as §1
# [37] = biological target: Gal(b1-3)Gal(b1-4)GlcNAc(b1-2)Man(a1-3)[Gal(b1-3)Gal(b1-4)GlcNAc(b1-2)Man(a1-6)]Man(b1-4)GlcNAc(b1-4)GlcNAc
# Procedure, shortened: as §1
# Gal(b1-3)GalNAc = biological target: Gal(b1-3)GalNAc
# Procedure, shortened: as §1
# [38] = biological target: Gal(b1-3)GalNAc(a1-3)[Fuc(a1-2)]Gal(b1-4)Glc
# Procedure, shortened: as §1
# [39] = biological target: Gal(b1-3)GalNAc(a1-3)[Fuc(a1-2)]Gal(b1-4)GlcNAc
# Procedure, shortened: as §1
# [40] = biological target: Gal(b1-3)GalNAc(b1-3)Gal(a1-4)Gal(b1-4)Glc
# Procedure, shortened: as §1
# [41] = biological target: Gal(b1-3)GalNAc(b1-4)Gal(b1-4)Glc
# Procedure, shortened: as §1
# [42] = biological target: Gal(b1-3)GalNAc(b1-4)[Neu5Ac(a2-3)]Gal(b1-4)Glc
# Procedure, shortened: as §1
# Gal(b1-3)GlcNAc = biological target: Gal(b1-3)GlcNAc
# Procedure, shortened: as §1
binder,measurement,setting,value
B1,glycan array binding signal (z-score),[1],-0.069
same,glycan array binding signal (z-score),[2],-0.734
same,glycan array binding signal (z-score),[3],0.221
same,glycan array binding signal (z-score),[4],-0.264
same,glycan array binding signal (z-score),[5],-0.481
same,glycan array binding signal (z-score),[6],-0.401
same,glycan array binding signal (z-score),[7],-0.248
same,glycan array binding signal (z-score),[8],1.47
same,glycan array binding signal (z-score),[9],0.181
same,glycan array binding signal (z-score),[10],-0.167
same,glycan array binding signal (z-score),[11],0.685
same,glycan array binding signal (z-score),Fuc(a1-3)GlcNAc,-1.35
same,glycan array binding signal (z-score),[12],0.173
same,glycan array binding signal (z-score),[13],-0.875
same,glycan array binding signal (z-score),[14],0.387
same,glycan array binding signal (z-score),[15],-0.02
same,glycan array binding signal (z-score),[16],-0.443
same,glycan array binding signal (z-score),[17],-0.476
same,glycan array binding signal (z-score),[18],1.97
same,glycan array binding signal (z-score),[19],-0.891
same,glycan array binding signal (z-score),[20],1.77
same,glycan array binding signal (z-score),[21],-0.76
same,glycan array binding signal (z-score),[22],0.063
same,glycan array binding signal (z-score),[23],0.525
same,glycan array binding signal (z-score),[24],0.188
same,glycan array binding signal (z-score),[25],-0.491
same,glycan array binding signal (z-score),[26],-0.238
same,glycan array binding signal (z-score),Fuc(a1-4)GlcNAc,-0.138
same,glycan array binding signal (z-score),Fuc(b1-3)GlcNAc,-0.644
same,glycan array binding signal (z-score),Gal(a1-2)Gal,-0.68
same,glycan array binding signal (z-score),Gal(a1-3)Gal,0.515
same,glycan array binding signal (z-score),Gal(a1-3)Gal(b1-3)GlcNAc,-0.767
same,glycan array binding signal (z-score),[27],0.204
same,glycan array binding signal (z-score),[28],-0.409
same,glycan array binding signal (z-score),[29],0.312
same,glycan array binding signal (z-score),Gal(a1-3)Gal(b1-4)Glc,-0.606
same,glycan array binding signal (z-score),Gal(a1-3)Gal(b1-4)GlcNAc,0.709
same,glycan array binding signal (z-score),[30],-0.261
same,glycan array binding signal (z-score),[31],0.29
same,glycan array binding signal (z-score),[32],0.472
same,glycan array binding signal (z-score),Gal(a1-3)GalNAc,-0.867
same,glycan array binding signal (z-score),[33],-0.245
same,glycan array binding signal (z-score),[34],-0.546
same,glycan array binding signal (z-score),Gal(a1-4)Gal(b1-4)Glc,-0.289
same,glycan array binding signal (z-score),Gal(a1-4)Gal(b1-4)GlcNAc,0.053
same,glycan array binding signal (z-score),[35],0.895
same,glycan array binding signal (z-score),[36],-0.496
same,glycan array binding signal (z-score),Gal(a1-4)GlcNAc,-0.114
same,glycan array binding signal (z-score),Gal(a1-6)Glc,-0.097
same,glycan array binding signal (z-score),Gal(b1-2)Gal,-0.585
same,glycan array binding signal (z-score),Gal(b1-3)Gal,-1.1
same,glycan array binding signal (z-score),Gal(b1-3)Gal(b1-4)GlcNAc,-1.41
same,glycan array binding signal (z-score),[37],-0.158
same,glycan array binding signal (z-score),Gal(b1-3)GalNAc,-0.347
same,glycan array binding signal (z-score),[38],-0.891
same,glycan array binding signal (z-score),[39],-0.032
same,glycan array binding signal (z-score),[40],-0.451
same,glycan array binding signal (z-score),[41],0.364
same,glycan array binding signal (z-score),[42],0.491
same,glycan array binding signal (z-score),Gal(b1-3)GlcNAc,0.479

# 2 entries from above, bar-delimited:
binder | measurement | setting | value
B1 | glycan array binding signal (z-score) | [26] | -0.238
same | glycan array binding signal (z-score) | Fuc(a1-4)GlcNAc | -0.138

# As a short view, some entries already given.
binder,measurement,setting,value
B1,glycan array binding signal (z-score),[35],0.895
same,glycan array binding signal (z-score),[36],-0.496
